Results published in EP4435012A1 (Juventus Cell Therapy Ltd., dated 2024).
No constants are given. Whether binding was seen depends on the method and setting. Some results given as binding are weak or reduced against the parent protein; the word gives no strength.

By UniProt entry, the sequences of proteins in these tests, tags left out. Residues count along the entry.
UniProt Q02223, residues 1-54: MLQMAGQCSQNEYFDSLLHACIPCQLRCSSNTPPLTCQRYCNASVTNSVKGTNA

Target: BCMA antigen (ELISA of Example 9) (UniProt Q02223)
Experiment: ELISA, purified scFv

B1: BY-02G scFv (humanized, purified) (scFv)
scFv: EIVMTQSPSTLSASVGDRVIINCQSSPSVYNNYLSWYQQKPGKAPKLLIYETSTLASGVPSRFSGSGSGAEFTLTISSLQPDDFATYYCAGTYVSGDRRAFGQGTKLTVLGGGGSGGGGSGGGGSEVQLVESGGGLVQPGGSLRLSCTASGFSLSTYHMTWVRQAPGKGLEWIGVISSSGSTYYASWAKGRFTISRDNSKNTVYLQMNSLRAEDTAVYFCARDLDYVIDLWGPGTLVTVSS
- binding: binds
